What was measured:
[1] = test system: Swiss Webster mice; assay: Mouse tail flick assay (radiant heat); assay type: in vivo; conditions: i.c.v.
Experimental: Mouse tail flick assay. […] Briefly, the latency to withdraw the tail from a focused light stimulus was determined using a photocell. […] Baseline latencies were determined before experimental treatment as the mean of two trials and a maximal latency of 12 s was used to minimize tissue damage. Post-treatment latencies were determined 5 min after i.c.v. injection. The antinociceptive effect was expressed as the percentage of the maximum possible effect, as calculated by the formula: % MPE=[(post-injection latency-baseline latency)/(cutoff latency-baseline latency)]×100. […] Group % MPE means were compared using one-way ANOVAs and P≦0.05 was considered significant.

[2] = test system: Swiss Webster mice; assay: Mouse writhing test (acetic acid-induced); assay type: in vivo; conditions: i.c.v.

## CN1CC[C@]23c4c5ccc(O)c4O[C@H]2[C@@H](O)C=C[C@H]3[C@H]1C5 [Morphine, reference compound]
[1]
  Potency ratio relative to [Ser1]HN: 72.6
[2]
  Potency ratio relative to Histogranin (HN): 34.8
